Laboratory results reported in article PMC7819943, “Rice protein-binding microarrays: a tool to detect cis-acting elements near promoter regions in rice”.
The list shows a part of the results.

Sequences of proteins named here, by UniProt entry; tags and fusion partners are left off.
UniProt Q0JBA9, entry or part of it: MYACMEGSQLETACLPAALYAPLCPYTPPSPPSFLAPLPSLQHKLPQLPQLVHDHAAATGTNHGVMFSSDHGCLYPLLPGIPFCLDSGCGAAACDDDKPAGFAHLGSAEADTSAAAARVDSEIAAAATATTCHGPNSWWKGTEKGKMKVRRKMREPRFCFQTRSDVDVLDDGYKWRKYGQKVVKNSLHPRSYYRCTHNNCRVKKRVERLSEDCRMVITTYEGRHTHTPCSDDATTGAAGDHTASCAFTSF

target: OsWRKY34 (Oryza sativa, UniProt Q0JBA9 1-250); assay: protein-binding microarray (RPBM); PBS, 2% BSA, 51.3 ng/ul salmon testes DNA, 50 uM zinc acetate, 200 nM TF, 25 C, 1 h; high values mean tight binding; conditions: protein: recombinant; tags: N-terminal polyhistidine and DsRed monomer fusion (pET32a); label: CyDye5-dUTP incorporated in the synthesized complementary strand; 3' TTTTT single-stranded linker to array surface; dsDNA, one strand shown
In short: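 Binding signal here means per-feature fluorescence intensity in arbitrary units. The values were read on an Axon 4000B scanner after a custom Agilent array, double-stranded by primer extension with Cy5-dUTP, was incubated with 200 nM protein at 25 °C for 1 h in PBS with 2% BSA, salmon testes DNA and 50 µM zinc acetate, then washed. The proteins were transcription factors with an N-terminal polyhistidine tag and DsRed, expressed in E. coli BL21-CodonPlus and purified on Ni–NTA.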

Going from “ACCATCCCTGCTGACTCCAAGTCTATGTATTGTGTTTCTCCGGAGTCACCTAGTGCAG” to “GCGGAGCTCCTTGGCTTCTCGGTTCCACTTGAAACGCTCGCGGAGTCACCTAGTGCAG”, the binding signal falls from 9760 fluorescence intensity (a.u.) to 8190 fluorescence intensity (a.u.).

Compared with “TAGCATAGTGTCAAGTCAAACATTTTTAACTTTGACTATTCGGAGTCACCTAGTGCAG”, “ATCCATGCATCCATCCATCATTTAACCACGTAGCATGTATCGGAGTCACCTAGTGCAG” is lower in binding signal: 15800 fluorescence intensity (a.u.) for the first, 8590 fluorescence intensity (a.u.) for the second.

Compared with “AGTCGGAAGGCCACCACATCTGCATGCCATTCTCGTCATTCGGAGTCACCTAGTGCAG”, “TTGTGCCGAAGAACTCCTACATGCGCTCGCCCGTCGGCCACGGAGTCACCTAGTGCAG” is lower in binding signal: 9110 fluorescence intensity (a.u.) for the first, 8050 fluorescence intensity (a.u.) for the second.

Going from “ACTATTGTCATATTTTTTTTTATTGCTCTACATATGAAATCGGAGTCACCTAGTGCAG” to “GCTGCAGTTGTGTATAGTAGGAGAAGCTGATTTCTATATCCGGAGTCACCTAGTGCAG”, the binding signal rises from 8780 fluorescence intensity (a.u.) to 9070 fluorescence intensity (a.u.).

Going from “CATGTAAACTTCTAACTTTTTCATCACATCATTCCAATTTCGGAGTCACCTAGTGCAG” to “CAGTATAGATCATATTTTCCCGGTTTTTGCTGGCGTGGCACGGAGTCACCTAGTGCAG”, the binding signal falls from 10400 fluorescence intensity (a.u.) to 9280 fluorescence intensity (a.u.).

Compared with “GCCGAGCGCCGCCACCACGCCACCGACCACCGCCACGCGCCGGAGTCACCTAGTGCAG”, “GTCAGTCTACATCAGTAGAGCAACTCTTGGTTCGTTTTTACGGAGTCACCTAGTGCAG” is lower in binding signal: 9020 fluorescence intensity (a.u.) for the first, 8670 fluorescence intensity (a.u.) for the second.

Compared with “ATGGTGGTTGTTACTGTCGTCCGTGTGTCTAGCTTGCCAACGGAGTCACCTAGTGCAG”, “AAAGTAGGAAGTCGGTGGTAGGAGTGTTGACATGCAGGGTCGGAGTCACCTAGTGCAG” is higher in binding signal: 9870 fluorescence intensity (a.u.) for the first, 10500 fluorescence intensity (a.u.) for the second.

First: TATACCTGCTTCATCTGAACGTATATACGTCCGGTTCCTACGGAGTCACCTAGTGCAG
Second: GTTGATATTGTTGTTTTTCTTCGTAGCTTATTTTCCAGCGCGGAGTCACCTAGTGCAG
The binding signal of the first is lower: 8410 fluorescence intensity (a.u.) for the first, 8620 fluorescence intensity (a.u.) for the second.

First: TAGCTAGCTCTTGTACAGGTTTCCTCACCTGCTGTATCGACGGAGTCACCTAGTGCAG
Second: AATTTTTGTGTGTCCCAGGGCAAATTTTGCCTTATATTTTCGGAGTCACCTAGTGCAG
The binding signal of the first is lower: 8060 fluorescence intensity (a.u.) for the first, 8390 fluorescence intensity (a.u.) for the second.

Going from “CTCTACTTCTAATGTTCCTTATTTTTTTTCCGAGTTTCTACGGAGTCACCTAGTGCAG” to “CCTGAATTCCCTCGTCTAGATCTCACACGTCACAAGTCTCCGGAGTCACCTAGTGCAG”, the binding signal falls from 9390 fluorescence intensity (a.u.) to 9360 fluorescence intensity (a.u.).

Compared with “GTCCCCGTCCAGGCGCAGCTCCCCGGCGTCCTCGTCTCCGCGGAGTCACCTAGTGCAG”, “TTGCGGACATCAGTATCGTACGTGTCATTTTTTTTTGCAACGGAGTCACCTAGTGCAG” is higher in binding signal: 8380 fluorescence intensity (a.u.) for the first, 9070 fluorescence intensity (a.u.) for the second.

Compared with “CTACATATCTGTAACCCGCTGCTCTTCTCTCTCTTCTTTTCGGAGTCACCTAGTGCAG”, “TGGTCGAGCTGCATCTTGGTTACGTTCTTCGCGAGCTCATCGGAGTCACCTAGTGCAG” is higher in binding signal: 8200 fluorescence intensity (a.u.) for the first, 10900 fluorescence intensity (a.u.) for the second.

First: CCACTCACATGTATGCACACACATCCCAAATTCCCAATTTCGGAGTCACCTAGTGCAG
Second: GCATTCTGTTTTTTTGTTCGGCCTGCATTCATTTCCCTAACGGAGTCACCTAGTGCAG
The binding signal of the first is lower: 8520 fluorescence intensity (a.u.) for the first, 15200 fluorescence intensity (a.u.) for the second.

First: CCGCCCCGTTTTCACCCTAGTCACAGTCTTCTCGCCCCATCGGAGTCACCTAGTGCAG
Second: ACGGCACGGCACGCTCTCCACCCCGCACGCTGCACGCATTCGGAGTCACCTAGTGCAG
The binding signal of the first is lower: 8970 fluorescence intensity (a.u.) for the first, 9290 fluorescence intensity (a.u.) for the second.

Compared with “CGCATTTTGTGCAATTTATACTGTGTTCTGTATGCATCAACGGAGTCACCTAGTGCAG”, “TCCTCTCTCTCTTCTTGTCATCCTCCTCATCTCTTCTTCCCGGAGTCACCTAGTGCAG” is higher in binding signal: 8060 fluorescence intensity (a.u.) for the first, 11300 fluorescence intensity (a.u.) for the second.

Compared with “ACATCGGCATCGATTACAGCTTCGACTTCCTCGTCTCGTTCGGAGTCACCTAGTGCAG”, “ACTGATATTTTTCTTTTCCAATCATAATTGTGCAAGTATTCGGAGTCACCTAGTGCAG” is lower in binding signal: 8940 fluorescence intensity (a.u.) for the first, 8220 fluorescence intensity (a.u.) for the second.

First: AACGGACGCGAAATCCTCTTCGGTTTTTGTATACTCATCCCGGAGTCACCTAGTGCAG
Second: ACTACTCTTAACTCTTTGCTAAATGCTGCTTTCGCAAATGCGGAGTCACCTAGTGCAG
The binding signal of the first is higher: 9230 fluorescence intensity (a.u.) for the first, 8330 fluorescence intensity (a.u.) for the second.

First: TTCACTCTAGTACTCTGCTTGCTTCTCCGCATCCATCAACCGGAGTCACCTAGTGCAG
Second: GTTGGGATATCTTCATTTCATTCATTGTTGTGTGGTGCGACGGAGTCACCTAGTGCAG
The binding signal of the first is higher: 9540 fluorescence intensity (a.u.) for the first, 8140 fluorescence intensity (a.u.) for the second.

First: GATTGGCTACACGCATATAGTTGCACGCATGCATGGTATTCGGAGTCACCTAGTGCAG
Second: GTTCTTGCTTTACACTGTTTGACCACTCGTCTTGTTCAAACGGAGTCACCTAGTGCAG
The binding signal of the first is lower: 10100 fluorescence intensity (a.u.) for the first, 10300 fluorescence intensity (a.u.) for the second.

Going from “ACTTCTACATAATTACTGTCTTTGTTGAGGGGTAAACTACCGGAGTCACCTAGTGCAG” to “CCGCTCTTGATTAGGTCGATGGGGTAATTTCTCTGTGTTTCGGAGTCACCTAGTGCAG”, the binding signal rises from 10900 fluorescence intensity (a.u.) to 12000 fluorescence intensity (a.u.).

First: TCTACAAATAAATTTCATAATCTACTCGGTTTAGTTGTTTCGGAGTCACCTAGTGCAG
Second: GAACAGGTCTATGCTGTTTGCCTTAGCTGCTGTGTCAGATCGGAGTCACCTAGTGCAG
The binding signal of the first is lower: 8150 fluorescence intensity (a.u.) for the first, 8250 fluorescence intensity (a.u.) for the second.

First: GTGACTCATATCACCCCACAATTCACATATTCTTAATCCCCGGAGTCACCTAGTGCAG
Second: TATATCTAACCCTTTTCCTTCAATTTCAATGCCTTTTAAACGGAGTCACCTAGTGCAG
The binding signal of the first is higher: 11900 fluorescence intensity (a.u.) for the first, 8210 fluorescence intensity (a.u.) for the second.

Going from “ACCTCGACCACGTACGCCGCCGTCCCTTGCAGCTCCGCCGCGGAGTCACCTAGTGCAG” to “ATATATATATATATATATATATATATATCATCGAAAATGTCGGAGTCACCTAGTGCAG”, the binding signal rises from 8730 fluorescence intensity (a.u.) to 8830 fluorescence intensity (a.u.).

First: TTGTCCAATCGTGGAGATGTCTCGTTTCTAGTCGCCAAAACGGAGTCACCTAGTGCAG
Second: GCAGTTGCGGCATTCCGACGAACACCTCGCGCGCGCGCGCCGGAGTCACCTAGTGCAG
The binding signal of the first is higher: 8810 fluorescence intensity (a.u.) for the first, 8220 fluorescence intensity (a.u.) for the second.

Compared with “ACGAGATCATCATCTGTAGTTCTTTTGTTGTGCTTTTCATCGGAGTCACCTAGTGCAG”, “CTCCTACCTCTACCGCTGCTACTCACCACACCAGCCGCCGCGGAGTCACCTAGTGCAG” is lower in binding signal: 10100 fluorescence intensity (a.u.) for the first, 8650 fluorescence intensity (a.u.) for the second.

Compared with “AACTGTATTCTTTGACCTGAACTCTTGCACTCCTATCTCGCGGAGTCACCTAGTGCAG”, “CGCCGCCGCCGCCGCCGATCCCCATCCATCCCGCGAGCAACGGAGTCACCTAGTGCAG” is lower in binding signal: 12400 fluorescence intensity (a.u.) for the first, 8120 fluorescence intensity (a.u.) for the second.

Going from “CTATCAATGCGAGGGTCCCACTATTTTTTTATTATTTTGTCGGAGTCACCTAGTGCAG” to “GAACTCATTTTGTTGTTTACCTCATTTCTATTCAGGAAACCGGAGTCACCTAGTGCAG”, the binding signal rises from 8110 fluorescence intensity (a.u.) to 8970 fluorescence intensity (a.u.).
